The series concerns the target T1, OmpR (UniProt E0SJT3).
T1 sequence (looked up): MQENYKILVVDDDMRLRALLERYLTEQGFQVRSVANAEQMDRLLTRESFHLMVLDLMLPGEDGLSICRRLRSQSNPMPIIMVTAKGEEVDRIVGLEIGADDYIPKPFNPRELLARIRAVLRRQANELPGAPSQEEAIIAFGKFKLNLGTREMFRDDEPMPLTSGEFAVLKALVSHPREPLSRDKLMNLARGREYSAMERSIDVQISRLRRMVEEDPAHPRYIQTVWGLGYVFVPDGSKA
Description: EMSA. The following applies: 100 ng opgC control fragment present; 100 ng target DNA + 100 ng control DNA, various OmpR-His6 amounts, gel shift buffer (composition and pH not given), 30 min, room temperature; 6% acrylamide TBE gel; recombinant protein; residues 1-239; protein details: His6 (pET100/D-TOPO vector tag); label: none (ethidium bromide); probe letters rebuilt from the primers and the genome.

This is an account of results in article PMC10581057.

Protein sequences can lack the tags named with them.

As for “CAGAGGACGCGAGGTGCTTGCCAGCGGCACCACTGGCACCCTAAGCTTCCGGGATTCTGTCTCCCGGTAATCTGCAGTATGGCTGATATATTTATAAGAATAAAACTCGTGCTTAAATCAGTATTTAAAATCACATTTAAAATTAATAAAAACAAAACAAACAAATCCATCTTCAACCCATTGTTTATTATTAAAAAATAAAGAAATAAAAATGAAATGTAATGTTTTGATTCGAATAAAAACATAATATTTCACCAACGCCGTTCTCGTATCATTTCCAACCTGACTAAAGCTTACCCCCGATGTGAGACTGCTGATGGGCACAACAAAGCATCGGCAATATTTCTGCTGATTATCTATTGCCGCCAGAAAGAAGTGTCTCAATGGTCAATAACACATAACGAGGGTAATGCGAATGATGAAGCACTTGATAAATACGCTAGCCACATCAGTATTGTTATTTTCAACTGGTCTGGTCAGTGCGGCTGAGGTTTATAATAAAGATGGTAATAAGCTTGATCTGTATGGCAAAGTACGATCAGCTTATTACTTTGGCGATAAAACCAATAGTTTCAAAGGGAATGGTGATTCAACGTATGCACGTCTGGGGG (double strand) [ompF3 upstream region]”, the binding result is “binds”.

In the case of “TATTGTCGACGCCGTCTTTATTGTACACTTCAGCCGCGTTAGCTGCACCGGCAGCCAACAGAGCCGGGATTACCACTGCAAGAAGATTGCGCTTCATCATTATTACCCTCATTGGTGTTATTAAGACAGCTGGATCACAGTAAAAGAATTCTGACGGAACTTTAATGTGAATCCAGTTGTCTTCCTGTGTCTGAACGCAGTTTTCCATTCACCCGCCCGTTAATCTACTCTTTAAATGATACTAATTTCTAATTCGAGTAACCATTGGAAAATATGTGTTTCAAATTGTAAAATTTACGGAACTTTGTGAGCAAACTCTAAAATAAAAAAAGAAGGGCACCCATAAGGTGCCCTTCTTATTACATATATCTGTTTTTCTTATGTTATTTTTCGCTTAGAAGGTGGCGCTGCGCGGTGTGCGCGGGAACGGAATGACATCGCGCACATTTTGTACACCGGTTACATAAGCAATCAAACGTTCAAAACCAAGACCGAAACCAGAGTGAGGAATGGTGCCATAACGACGCAGATCACGGTACCACCAGTAATCTTCCTTACTGAGTCCCATTTCTTCCAGGCGGATATCCAACTGTTCCAGACGTTCTTCACG (double strand) [ompF upstream region]”, the binding result was “binds”.
